{"source": "patent US6821954B2", "about": "(Auckland UniServices Limited, priority 1997, dated 2004)", "assay": "Boc solid-phase peptide synthesis; benzhydrylamine resin; diisopropylcarbodiimide", "conditions": "whole synthesis, scale 0.5 mmole", "note": "Bridge positions count the residues as written; N and C are the ends. Ends that are not written are not given here."}
{"substance": "KCNTATCA-NH2 (disulfide 2-7)", "values": [{"measurement": "isolated mass", "value": 188, "unit": "mg"}]}
